Experimental data published in publication PMC7819943, “Rice protein-binding microarrays: a tool to detect cis-acting elements near promoter regions in rice”.
The list shows a part of the results.

Protein sequences, listed by entry. Tags and fused reporters are not part of them.
UniProt Q0JBA9, entry or part of it: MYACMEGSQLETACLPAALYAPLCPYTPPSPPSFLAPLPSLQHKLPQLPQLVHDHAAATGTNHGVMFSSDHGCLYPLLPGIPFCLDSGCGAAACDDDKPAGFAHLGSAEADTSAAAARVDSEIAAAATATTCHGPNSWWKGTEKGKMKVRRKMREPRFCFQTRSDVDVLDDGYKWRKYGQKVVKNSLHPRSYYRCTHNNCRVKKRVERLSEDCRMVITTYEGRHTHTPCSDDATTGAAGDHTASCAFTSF

Target: OsWRKY34 (Oryza sativa, UniProt Q0JBA9 1-250)
Assay: protein-binding microarray (RPBM); PBS, 2% BSA, 51.3 ng/ul salmon testes DNA, 50 uM zinc acetate, 200 nM TF, 25 C, 1 h; high values mean tight binding
Conditions: protein: recombinant; tags: N-terminal polyhistidine and DsRed monomer fusion (pET32a); label: CyDye5-dUTP incorporated in the synthesized complementary strand; 3' TTTTT single-stranded linker to array surface; dsDNA, one strand shown
How it was run: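 Using Ni–NTA, transcription factors fused N-terminally to polyhistidine and DsRed were purified after expression in E. coli BL21-CodonPlus. These were incubated at 200 nM with a blocked, double-stranded custom Agilent array for 1 h at 25 °C in a buffer containing 50 µM zinc acetate, and the array was washed. The binding signal is per-feature fluorescence intensity (arbitrary units) on an Axon 4000B scanner.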

| Sequence | binding signal |
| --- | --- |
| GCTTTCCTTGTTTGTTCGGCCCGGATGCATTACCACTTCTCGGAGTCACCTAGTGCAG | 10800 fluorescence intensity (a.u.) |
| ATTGATGAAGCATATATTGTGTCGCTGTCATTTGGTTGTTCGGAGTCACCTAGTGCAG | 9080 fluorescence intensity (a.u.) |
| GGAGCTTTCAACAGGACCATTTGGGATCATTTCATATAGTCGGAGTCACCTAGTGCAG | 9280 fluorescence intensity (a.u.) |
| GATCCGTCGAACAGTGAATTGCACTCTGATCTATCTTTTACGGAGTCACCTAGTGCAG | 10400 fluorescence intensity (a.u.) |
| ATATATATATATATATATATATACACTATATACTATACCGCGGAGTCACCTAGTGCAG | 13300 fluorescence intensity (a.u.) |
| GGTGCATCTGTGCGGTGGAGGGGCTCGGCTGGGCGGCGGCCGGAGTCACCTAGTGCAG | 11600 fluorescence intensity (a.u.) |
| GAACACTTTCCTTCCCGCGCCTTTCAATTCATCCGCGCTCCGGAGTCACCTAGTGCAG | 11700 fluorescence intensity (a.u.) |
| TGCTCGCCGCCGCCGCCGCCGCCGCACGCCTTCGAAGATGCGGAGTCACCTAGTGCAG | 8460 fluorescence intensity (a.u.) |
| AGCATCCGCCCCTCGTTACGCACATTTTTTTATTCGAATTCGGAGTCACCTAGTGCAG | 9400 fluorescence intensity (a.u.) |
| ATATCTCATACTATCTCTCTTCCGTCGTTCCGTGTTGGCCCGGAGTCACCTAGTGCAG | 10900 fluorescence intensity (a.u.) |
| CATTTGTTAAGATTTCTGGCCTGTATTTTCTTGGGTTGGACGGAGTCACCTAGTGCAG | 10400 fluorescence intensity (a.u.) |
| AATGTTCTTGAGGGCAAAGGGATGGACGCGGGTGTTCTACCGGAGTCACCTAGTGCAG | 8050 fluorescence intensity (a.u.) |
| GGATGACATGTGGGTCCCACTTTTTGTGTGTGTGTGTGAACGGAGTCACCTAGTGCAG | 10600 fluorescence intensity (a.u.) |
| CATCTGTCTCTGGATCTCTGCATATCTCCTCTTCTGTGATCGGAGTCACCTAGTGCAG | 17200 fluorescence intensity (a.u.) |
| GGATAGATTGGAGTGGGTTGGGAAGGCTAATGCCCTTAGCCGGAGTCACCTAGTGCAG | 8640 fluorescence intensity (a.u.) |
| AATTGACTCTTTTGCCCTTCGTTCTTATCTCCTTTGCGCTCGGAGTCACCTAGTGCAG | 9720 fluorescence intensity (a.u.) |
| CCAGCAATACCCTACTCTCTCCGTCCCACTCACTAAGACACGGAGTCACCTAGTGCAG | 9270 fluorescence intensity (a.u.) |
| TTGGCCATGTTAATGTTTTACTGATCATCAATTTGGTTACCGGAGTCACCTAGTGCAG | 8980 fluorescence intensity (a.u.) |
| TGATGCTATGAATTGAATTAGTGATTTGACTGTTCCTTTTCGGAGTCACCTAGTGCAG | 8100 fluorescence intensity (a.u.) |
| ACATCAAAATTTTCTTACACACAAACTTCTGACTTTTTTACGGAGTCACCTAGTGCAG | 9430 fluorescence intensity (a.u.) |
| CCCTCTGACTCTTTGCGCCAAGTCAATCTCCCCGTCTGTCCGGAGTCACCTAGTGCAG | 11700 fluorescence intensity (a.u.) |

| Sequence | binding signal |
| --- | --- |
| CGCCTTATCCTCCCGCCTTTTCACGTCCCGCCACGCCGACCGGAGTCACCTAGTGCAG | 8900 fluorescence intensity (a.u.) |
| CCATTAAAGCCAAGCCACTGTCCTTGTCCATCTTTGTCCACGGAGTCACCTAGTGCAG | 8190 fluorescence intensity (a.u.) |
| TTCTACATTTATTCAGTTCTATATCCGTAGGCCCTAATTGCGGAGTCACCTAGTGCAG | 10000 fluorescence intensity (a.u.) |
| TCCTTTGCTACACTATATTCAAGCCATTGGTACTTATGAACGGAGTCACCTAGTGCAG | 8100 fluorescence intensity (a.u.) |
| GATCACGGCGCGCCGCATCCTTCTCTCGTTGACCTAAAAACGGAGTCACCTAGTGCAG | 8400 fluorescence intensity (a.u.) |
| ATTGTTACTGTTCTCGACTTCGCCGTCTCGCAAAATCCATCGGAGTCACCTAGTGCAG | 14700 fluorescence intensity (a.u.) |
| TTTTCATCTGAGCTTATGTTCCAACTTTTATTTTTAATCACGGAGTCACCTAGTGCAG | 8780 fluorescence intensity (a.u.) |
| GACTCTACGCTTCGTTTACTTTTTTTTTTTTTTTTGAAAACGGAGTCACCTAGTGCAG | 10200 fluorescence intensity (a.u.) |
| AATTCTCTATCGCTATATTCTGCAACACACACAGTTTGCTCGGAGTCACCTAGTGCAG | 8800 fluorescence intensity (a.u.) |
| AACAGTTTAGTGAGGTGGTGGGGAATCGACCTCAAATCGGCGGAGTCACCTAGTGCAG | 8210 fluorescence intensity (a.u.) |
| TGTGGTGGGGATGGGACTGTTGCATGGGTTCTTGATGCTACGGAGTCACCTAGTGCAG | 10500 fluorescence intensity (a.u.) |
| GAGTATATCATTTCTCAATTTATTATTTATAGGAGTGTAGCGGAGTCACCTAGTGCAG | 15700 fluorescence intensity (a.u.) |
| TTCCTAACTCATTCATATGCTGGTCAGCTTTTGTTCATGACGGAGTCACCTAGTGCAG | 10300 fluorescence intensity (a.u.) |
| GTTCGGCTGCTTTTTTTTTCTCCGGCTACAGCTGTGGCCACGGAGTCACCTAGTGCAG | 8260 fluorescence intensity (a.u.) |
| TTTCTTATGTGCCACTATTTGCAATTTTTTTTCCACGTGACGGAGTCACCTAGTGCAG | 9520 fluorescence intensity (a.u.) |
| TATTCGATTTTGGGTGGTGGTTGTTAAGTTGGCATTTGCACGGAGTCACCTAGTGCAG | 18300 fluorescence intensity (a.u.) |
| GGATCCACATTTGTTCTGGATTTCGTTTTTGTGTGTTTTTCGGAGTCACCTAGTGCAG | 11300 fluorescence intensity (a.u.) |
| TGTGAAACCAATCACTATTATTTCATTAGCACGTTTTTCACGGAGTCACCTAGTGCAG | 8300 fluorescence intensity (a.u.) |
| TCTTGGACGACAGCGTGCCCCTGCGCTCTTTTCGCCTTCGCGGAGTCACCTAGTGCAG | 8340 fluorescence intensity (a.u.) |
| GAGTTGGGGTGGTTGATGGCGTGCTTATCTTCCACTTCCACGGAGTCACCTAGTGCAG | 8660 fluorescence intensity (a.u.) |
| GGGGCGGTGGCGGCGGTGGATTGGGCGGTAACGCGATGGCCGGAGTCACCTAGTGCAG | 10900 fluorescence intensity (a.u.) |

Another view of part of the listing above:
Sequence	binding signal
CGCCTTATCCTCCCGCCTTTTCACGTCCCGCCACGCCGACCGGAGTCACCTAGTGCAG	8900 fluorescence intensity (a.u.)
GACTCTACGCTTCGTTTACTTTTTTTTTTTTTTTTGAAAACGGAGTCACCTAGTGCAG	10200 fluorescence intensity (a.u.)
TTTCTTATGTGCCACTATTTGCAATTTTTTTTCCACGTGACGGAGTCACCTAGTGCAG	9520 fluorescence intensity (a.u.)
